Measurements reported in PMC10496292.
Results are given in words; binding and its absence hold for the method and conditions named. In cells and extracts the contact can be indirect. Some results given as binding are weak or reduced against the parent protein; the word gives no strength. Tags and fused reporters may be left off the sequences shown.

T1: Prefoldin 2 (Pfd2/Gim4), HA-tagged (S. cerevisiae) (UniProt P40005)
T1 sequence: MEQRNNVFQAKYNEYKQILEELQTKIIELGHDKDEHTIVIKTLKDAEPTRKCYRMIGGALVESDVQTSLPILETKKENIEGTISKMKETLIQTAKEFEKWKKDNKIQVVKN

B1: Tom70 (receptor, UniProt P07213 1-617)
chain: MKSFITRNKTAILATVAATGTAIGAYYYYNQLQQQQQRGKKNTINKDEKKDTKDSQKETEGAKKSTAPSNPPIYPVSSNGEPDFSNKANFTAEEKDKYALALKDKGNQFFRNKKYDDAIKYYNWALELKEDPVFYSNLSACYVSVGDLKKVVEMSTKALELKPDYSKVLLRRASANEGLGKFADAMFDLSVLSLNGDFNDASIEPMLERNLNKQAMSKLKEKFGDIDTATATPTELSTQPAKERKDKQENLPSVTSMASFFGIFKPELTFANYDESNEADKELMNGLSNLYKRSPESYDKADESFTKAARLFEEQLDKNNEDEKLKEKLAISLEHTGIFKFLKNDPLGAHEDIKKAIELFPRVNSYIYMALIMADRNDSTEYYNYFDKALKLDSNNSSVYYHRGQMNFILQNYDQAGKDFDKAKELDPENIFPYIQLACLAYRENKFDDCETLFSEAKRKFPEAPEVPNFFAEILTDKNDFDKALKQYDLAIELENKLDGIYVGIAPLVGKATLLTRNPTVENFIEATNLLEKASKLDPRSEQAKIGLAQMKLQQEDIDEAITLFEESADLARTMEEKLQAITFAEAAKVQQRIRSDPVLAKKIQETLAKLREQGLM
B2: Mia40 (protein, UniProt P36046 32-403)
chain: MASSPQFGRNSNQEKTAGFIMGILSMAGALYFIAPNRKPLFASRKVESDKTAEEELSSGGEQSPENEDDNNSKSDENGDDNDSKNDETEAGPQLGGDKIGASKVAEDGELVVLAEEDNKSSEDKDTDESKVSTKDDEQSNEDNATANNQKDENISSENSEENTSDKTLDNNAGSSEKKDPEHSDDEKSQQGQSDDKTTTEDNNGEEESSKKTVSDSENSAKQSESSDEEKEELRKQEEKQMGPTEEEVQHEGAYNPDTGEINWDCPCLGGMAHGPCGEEFKSAFSCFVYSEAEPKGIDCVEKFQHMQDCFRKYPEHYAEQLKETSDDEEPQDKVKVNTIESAPNVSSAKENAAKKAEQSDVKKEPLNEESKP

Target: T1, Prefoldin 2 (Pfd2/Gim4), HA-tagged (S. cerevisiae)
Experiment: co-IP; Lysate of Δpfd2 cells expressing PFD2-HA (grown at 25 °C, or shifted to 37 °C for 4 h) on Dynabeads goat anti-mouse IgG coated with anti-HA antibody; lysis buffer 50 mM HEPES-KOH pH 7.5, 100 mM NaCl, 1 mM EDTA, 5% glycerol; overnight at 4 °C; elution in Laemmli buffer, Western blot

Binder	binding
B1	binds
B2	no binding
